From PMC6796926, “Pioneering function of Isl1 in the epigenetic control of cardiomyocyte cell fate” come the findings set out here.

Sequences of proteins named here, by UniProt entry; tags and fusion partners are left off.
UniProt Q3TKT4: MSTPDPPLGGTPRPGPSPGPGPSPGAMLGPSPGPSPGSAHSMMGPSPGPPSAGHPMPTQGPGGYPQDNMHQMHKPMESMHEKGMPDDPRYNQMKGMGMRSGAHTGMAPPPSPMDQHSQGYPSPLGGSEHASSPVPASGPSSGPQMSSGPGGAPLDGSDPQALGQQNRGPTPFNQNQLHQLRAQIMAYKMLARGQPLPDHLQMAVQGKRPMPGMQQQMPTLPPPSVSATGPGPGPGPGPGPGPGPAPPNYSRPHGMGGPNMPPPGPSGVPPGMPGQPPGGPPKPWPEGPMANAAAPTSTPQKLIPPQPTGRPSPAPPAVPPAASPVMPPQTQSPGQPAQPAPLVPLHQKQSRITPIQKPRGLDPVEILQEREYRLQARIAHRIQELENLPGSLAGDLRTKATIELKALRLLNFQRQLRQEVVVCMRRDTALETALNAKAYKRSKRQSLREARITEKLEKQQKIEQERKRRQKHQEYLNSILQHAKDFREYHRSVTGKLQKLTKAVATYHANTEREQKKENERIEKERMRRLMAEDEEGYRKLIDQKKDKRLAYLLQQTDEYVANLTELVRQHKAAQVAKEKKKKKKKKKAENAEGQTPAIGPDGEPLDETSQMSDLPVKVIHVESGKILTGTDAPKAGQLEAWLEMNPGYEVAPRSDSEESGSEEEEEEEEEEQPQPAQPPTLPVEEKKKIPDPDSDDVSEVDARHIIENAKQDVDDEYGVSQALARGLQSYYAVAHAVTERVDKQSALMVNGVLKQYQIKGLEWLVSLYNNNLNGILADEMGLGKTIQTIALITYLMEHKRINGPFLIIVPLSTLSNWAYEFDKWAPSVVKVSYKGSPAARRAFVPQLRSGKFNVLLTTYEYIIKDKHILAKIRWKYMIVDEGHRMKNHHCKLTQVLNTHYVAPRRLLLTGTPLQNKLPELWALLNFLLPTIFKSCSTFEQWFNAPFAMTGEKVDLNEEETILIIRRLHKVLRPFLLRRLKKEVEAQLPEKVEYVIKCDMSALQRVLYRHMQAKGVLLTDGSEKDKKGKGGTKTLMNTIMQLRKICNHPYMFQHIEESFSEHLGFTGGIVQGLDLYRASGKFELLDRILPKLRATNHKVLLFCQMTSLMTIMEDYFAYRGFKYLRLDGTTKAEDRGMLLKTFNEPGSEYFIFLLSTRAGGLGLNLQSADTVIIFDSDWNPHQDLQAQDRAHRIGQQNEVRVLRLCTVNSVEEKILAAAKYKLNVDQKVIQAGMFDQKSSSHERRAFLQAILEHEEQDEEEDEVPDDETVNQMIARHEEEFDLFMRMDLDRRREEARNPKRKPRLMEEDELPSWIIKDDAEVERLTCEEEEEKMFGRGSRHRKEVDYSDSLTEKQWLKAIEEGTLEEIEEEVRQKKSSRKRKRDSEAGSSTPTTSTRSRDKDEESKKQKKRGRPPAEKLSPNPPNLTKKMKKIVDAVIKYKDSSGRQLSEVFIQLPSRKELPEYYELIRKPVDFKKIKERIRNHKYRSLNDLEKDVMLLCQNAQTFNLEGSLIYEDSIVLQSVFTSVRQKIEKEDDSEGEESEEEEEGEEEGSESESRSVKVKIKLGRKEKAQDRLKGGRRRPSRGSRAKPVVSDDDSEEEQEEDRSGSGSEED
UniProt Q6P9Z1: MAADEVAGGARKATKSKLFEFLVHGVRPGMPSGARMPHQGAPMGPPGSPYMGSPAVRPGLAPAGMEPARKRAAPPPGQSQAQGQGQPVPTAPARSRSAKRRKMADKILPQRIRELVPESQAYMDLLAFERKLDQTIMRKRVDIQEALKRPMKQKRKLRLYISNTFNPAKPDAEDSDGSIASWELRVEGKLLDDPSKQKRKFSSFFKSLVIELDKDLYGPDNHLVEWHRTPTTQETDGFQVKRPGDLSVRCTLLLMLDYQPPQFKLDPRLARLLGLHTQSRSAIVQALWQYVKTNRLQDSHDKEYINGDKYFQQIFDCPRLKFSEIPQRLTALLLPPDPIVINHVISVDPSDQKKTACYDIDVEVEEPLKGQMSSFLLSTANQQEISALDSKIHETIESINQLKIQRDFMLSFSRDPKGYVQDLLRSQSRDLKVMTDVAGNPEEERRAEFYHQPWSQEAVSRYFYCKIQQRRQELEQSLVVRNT

The target in experiment [1] is T1, Isl1 (mouse (endogenous in mouse ESC-derived CPCs and mouse embryos)) (UniProt P61372).
T1 sequence: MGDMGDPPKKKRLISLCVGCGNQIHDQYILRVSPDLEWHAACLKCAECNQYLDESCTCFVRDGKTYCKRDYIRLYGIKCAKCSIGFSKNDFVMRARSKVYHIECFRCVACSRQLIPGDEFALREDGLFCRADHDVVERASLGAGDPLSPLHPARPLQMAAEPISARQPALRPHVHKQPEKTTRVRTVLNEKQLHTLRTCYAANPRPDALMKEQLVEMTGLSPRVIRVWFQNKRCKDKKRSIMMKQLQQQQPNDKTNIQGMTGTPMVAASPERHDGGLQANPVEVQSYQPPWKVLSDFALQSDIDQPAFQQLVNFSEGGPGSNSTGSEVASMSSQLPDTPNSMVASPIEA
The experiment is described as follows: co-IP; lysate of mouse ESC-derived cardiac progenitor cells (control and Baf60c knock-down); precipitated with anti-Isl1 antibody 39.4D5 and Protein G-Sepharose, 4 °C; western blot for Brg1 and Baf60c. Background: A western blot detects proteins with antibodies after separation by electrophoresis.

The target of experiment [2] is T1, Isl1 (mouse (endogenous in mouse ESC-derived CPCs and mouse embryos)). The experiment is described as follows: co-IP; lysate of 30 homogenised mouse embryos (E8.25-E9); lysis buffer 50 mM Tris pH 7.5, 10 mM EGTA, 100 mM NaCl, 0.1% Triton X-100; precipitated with anti-Isl1 antibody 39.4D5 and Protein G-Sepharose, 4 °C; western blot for Brg1.

Results are given in words; binding and its absence hold for the method and conditions named. Binding seen in cells or lysates may run through a third protein. Some results given as binding are weak or reduced against the parent protein; the word gives no strength.

Turning to Brg1 (from UniProt Q3TKT4 1-1613), the binding result in experiment [1] and in experiment [2] was “binds” in each case.
As for Baf60c (from UniProt Q6P9Z1 1-483), in experiment [1], the binding entry is “binds”.
